This test in a line: qHTS Assay for Lipid Storage Modulators in Drosophila S3 Cells.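 For cell number change: cells counted by Cell Tracker Red CMTPX staining in the red channel.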 The settings on record: BODIPY lipid droplet fluorescence, 18-24 h; for cell number change: measured here: cell count max response, cells fed with added oleic acid. Summed up: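 Drosophila S3 cells got compounds at several concentrations plus oleic acid (400 uM solution). Laser-scanning cytometry with 488 nm excitation read lipid droplets at 500-530 nm and cells at 575-640 nm. Percent activity was relative to 20 uM Triacsin C.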
(qHTS replaces the single test concentration by a dilution series.)

Where [1] appears, read: measured here: lipid fluorescence (Fed channel) AC50, cells fed with added oleic acid.
Setting [2] is: measured here: cell number channel AC50, cells fed with added oleic acid.

This is one part of the list. Shown are side measurements of this screen, not its main read-out; they come without a call. Most of these compounds were active or inconclusive in the main read-out, so they are no random draw. Words in brackets tell the shape of the fitted curve; partial curves, single points and poor fits give uncertain potencies.

As to `Cc1ccc(S(=O)(=O)Nc2ccccc2C=Nc2cccc(C)c2C)cc1`, the cell number change was -26.1%. For the same molecule, the AC50 (commonly the concentration giving half of the maximal activity seen) under setting [1] was 18.4 µM [falling, single point].

With `Cc1cccc(NC(=O)C2(C)CC3c4ccccc4C2c2ccccc23)c1` (configuration not stated), the cell number change is -30.9%. Under setting [2], the AC50 is 29.1 µM [falling, single point].

Take `Cc1nn(CC(=O)Nc2ccc(F)cc2)c(=O)c2ccccc12`: the cell number change was -26.2%.

For `Cn1nc(C(=O)Nc2nc3ccccc3[nH]2)ccc1=O`, the cell number change was -28.7%.

Turning to `CCOc1ccc(N(CC(=O)NCc2ccccc2Cl)S(=O)(=O)c2c(C)noc2C)cc1`, the cell number change is -6.13%. In addition, under setting [1], the AC50 was 29.1 µM [falling, single point].

`Cc1cc(NC(=O)c2cc(CC(C)C)on2)no1`: the cell number change was -29.1%. The AC50 under setting [2] was 3.26 µM [falling, full curve, poor fit]. Besides, under setting [1], the AC50 was 6.51 µM [falling, single point].

For `CCN=c1sc(C(=O)NCCc2ccccc2)cc(=O)n1CC`, the cell number change was -27.8%. Also, under setting [1], the AC50 is 9.2 µM [falling, partial curve].

For the molecule `CCOc1ccccc1NC(=O)Nc1ccc(Cl)cc1`, the cell number change was -22.7%. For the same molecule, the concentration at half-maximal activity (AC50) under setting [1] was 0.0326 µM [rising, full curve, poor fit].

On to `C[C@H](NC(=O)OC(C)(C)C)C(=O)NCC1CCC(C(=O)N[C@@H](Cc2ccccc2)C(=O)O)CC1` (some centres not stated), for which the cell number change was found to be 34.6%. In addition, under setting [2], the AC50 is 32.6 µM [rising, partial curve, poor fit]. Further, the AC50 under setting [1] was 0.411 µM [rising, full curve, poor fit].

For `CC1CCCCN1C(=O)CN1C(=O)c2ccccc2S1(=O)=O` (configuration not stated), the cell number change was -14.9%. Moreover, the AC50 under setting [1] was 32.6 µM [rising, single point].

Consider `O=C(COc1cccc(Cl)c1)N/N=C\c1cc2ccccc2nc1Cl`, for which the AC50 was 1.03 µM [rising, partial curve] under setting [2] and 1.84 µM [rising, partial curve] under setting [1].

For `COc1ccc(NC(=O)NCc2ccccc2F)cc1OC`, the cell number change was 6.75%.

Regarding `COc1ccc(CCC(=O)NCCS(=O)(=O)N2CCN(c3ccccc3OC)CC2)cc1`, the AC50 under setting [1] is 6.51 µM [falling, single point].

Consider `CCOC(=O)CSc1nc2cc(C(=O)NCc3ccco3)ccc2c(=O)n1-c1ccc(F)cc1`, for which the AC50 under setting [2] is 6.51 µM [falling, single point] and the AC50 under setting [1] was 6.51 µM [falling, single point].

As for `COCC(=O)N(Cc1cc2cc(OC)ccc2[nH]c1=O)c1ccccc1OC`, the cell number change is -1.76%. The AC50 under setting [1] is 29.1 µM [falling, single point].

Take `CN1c2ccccc2Sc2cc(N)ccc21`: the cell number change was -43.2%. Further, the concentration at half-maximal activity (AC50) under setting [2] is 18.4 µM [falling, single point]. The AC50 under setting [1] is 29.1 µM [falling, single point].

For the molecule `CN(C)c1nc(Oc2ccc(=O)n(C)n2)nc(N2CCOCC2)n1`, the cell number change was -135%. Besides, the AC50 under setting [2] is 23.1 µM [falling, single point].

As for `O=c1ccc(-c2ccccc2)nn1Cc1ccc(F)cc1Cl`, the cell number change was -12.1%. Further, the AC50 under setting [2] is 0.00461 µM [falling, full curve, poor fit].

For the molecule `Cc1cc(C(=O)CSc2nnc3ccccn23)c(C)n1-c1ccccc1`, the cell number change came to 83.3%. Further, the AC50 under setting [2] was 29.1 µM [rising, single point]. Also, the AC50 under setting [1] was 10.3 µM [rising, partial curve].

With `CCn1cc(C(=S)N2CCC(C(N)=O)CC2)c2ccccc21`, the cell number change worked out at 30.5%. Further, the AC50 under setting [2] was 3.26 µM [falling, partial curve]. Moreover, the AC50 under setting [1] was 2.06 µM [falling, partial curve].

For the molecule `CCC(=O)Nc1ccc(NCc2cccs2)cc1`, the cell number change was -8.14%. Besides, the AC50 under setting [1] was 0.651 µM [falling, partial curve, poor fit].

As to `Cc1cc(C)n(-c2ncnc3sc4c(c23)CCCC4)n1`, the cell number change was -4.98%. The concentration at half-maximal activity (AC50) under setting [1] was 2.59 µM [falling, partial curve, poor fit].

`Cc1ccc(NC(=O)CN(C)C(=O)CNC(=O)c2sc3ccccc3c2Cl)cc1`: the cell number change amounted to 39%. Also, the AC50 under setting [2] is 13 µM [rising, partial curve, poor fit]. Moreover, the AC50 under setting [1] is 16.4 µM [rising, partial curve, poor fit].

In the case of `CCN1CN=C(NS(=O)(=O)c2ccc(C)cc2)NC1`, the cell number change was -16.9%. Moreover, under setting [2], the AC50 was 0.0058 µM [falling, full curve, poor fit].

For `C=CCC1Cc2c(cccc2[N+](=O)[O-])C(CC=C)N1` (configuration not stated), the cell number change was -18.1%. Besides, the AC50 under setting [2] was 7.31 µM [falling, partial curve, poor fit]. For the same molecule, under setting [1], the AC50 is 4.61 µM [falling, full curve].

`CCOC(=O)C1CCN(C(=O)Nc2ccc(NC(=O)C3CCN(C(=O)OCC)CC3)cc2)CC1`: the cell number change is -29.9%. The AC50 under setting [1] is 3.26 µM [falling, full curve].

For `COC(=O)c1ccc(CSc2nnnn2C)o1`, the cell number change was -33.8%. Further, the AC50 under setting [2] is 0.103 µM [falling, full curve, poor fit].

In the case of `Cc1ccc(-n2c(CCc3ccccc3)nnc2SCC(=O)NCc2ccccc2)cc1C`, the cell number change was -48.2%. The AC50 under setting [2] was 0.731 µM [rising, partial curve]. For the same molecule, the AC50 under setting [1] is 6.51 µM [rising, single point].

Regarding `CCCCOC(=O)Nc1nc2ccccc2s1`, the cell number change is -5.2%.

For the molecule `COc1ccc(-c2[nH]c(-c3ccc(F)cc3)nc2SCC(=O)NC2CCCC2)cc1`, the cell number change was found to be 0.323%.

For `N#Cc1nc(-c2ccc(F)cc2)oc1N1CCN(C(=O)c2ccco2)CC1`, the cell number change is -36.3%. In addition, under setting [2], the AC50 was 14.1 µM [falling, single point].

For `CCOC(=O)CCCNC(=O)CCNC(=O)c1ccc(OCCC(C)C)cc1`, the cell number change was -61.3%. Also, the AC50 under setting [2] is 0.58 µM [falling, full curve, poor fit]. Further, the AC50 under setting [1] was 0.103 µM [falling, full curve].

As for `CCOC(=O)N1CCN(C(=O)COc2cccc3c2CCN(Cc2ccc(F)cc2)C3=O)CC1`, the cell number change is -15.9%.

On to `O=C(Oc1ccc(N2C(=O)CCC2=O)cc1)c1ccco1`, for which the cell number change was -31.8%. In addition, under setting [2], the AC50 is 3.66 µM [falling, full curve, poor fit]. Under setting [1], the AC50 is 3.66 µM [falling, full curve].

Consider `CCCCOC(=O)/C=C\C(=O)NC(N)=O`, for which the cell number change is -17%. Also, the AC50 under setting [1] is 29.1 µM [falling, single point].

As to `O=C(Cn1ncc2c3ccccc3n(Cc3ccccc3F)c2c1=O)N1CCN(c2ccccn2)CC1`, the cell number change was -4.9%. For the same molecule, the AC50 under setting [1] was 0.58 µM [falling, single point].

In the case of `C=CCC1(CC=C)CCCN1C(=O)c1cc(COc2ccccc2SC)on1`, the cell number change was found to be 18.8%.

As to `COc1cccc(OCCSc2nc(N)cc(N)n2)c1`, the cell number change was -172%. The AC50 under setting [2] is 29.1 µM [falling, single point].

As for `COc1ccc(S(=O)(=O)Nc2cccc(-c3ccc4nncn4n3)c2)cc1`, the cell number change is 33.9%. Besides, under setting [2], the AC50 was 1.46 µM [rising, full curve]. Also, the AC50 under setting [1] is 2.91 µM [rising, full curve].

`CCOC(=O)c1[nH]c(=O)[nH]c1CSCCO`: the cell number change was -21.5%.

As for `COc1ccc(C2C(C(=O)c3sc(C)nc3C)=C(O)C(=O)N2CCN(C)C)cc1OC` (configuration not stated), the cell number change worked out at 12.7%. Further, the AC50 under setting [1] is 5.8 µM [falling, single point].

As for `Cc1ccc(C2C=C(c3ccccc3OC(F)F)Nc3ncnn32)cc1` (configuration not stated), the AC50 reads like this: under setting [2], 0.13 µM [rising, full curve, poor fit]; under setting [1], 0.13 µM [rising, full curve, poor fit].

In the case of `CCCCCc1nc2c(c3c1CCCC3)CCCC2`, the cell number change came out at 6.94%. The AC50 under setting [1] is 4.11 µM [falling, single point].

For `O=C1CC(c2ccccc2)=NN1c1nc(-c2ccccc2)cs1`, the cell number change was determined as 6.23%.

With `COc1ccc(C(=O)ON=C2CCN(c3ccc([N+](=O)[O-])cc3)CC2)cc1`, the cell number change was -24.7%. The AC50 under setting [1] was 16.4 µM [falling, partial curve].

For `COc1ccc(Cn2nnnc2C(CC(C)C)N2CCC(C(N)=O)CC2)cc1` (configuration not stated), the cell number change is -22.8%. The AC50 under setting [1] is 0.731 µM [falling, full curve, poor fit].

With `Nc1ccc(NC(=O)Nc2ccc(N)cc2)cc1`, the cell number change was 0.595%. Besides, the AC50 under setting [1] is 0.00517 µM [falling, full curve, poor fit].

Consider `C=CCn1c(SCC(=O)N(C)C)nc2cc(C(=O)O)ccc2c1=O`, for which the cell number change is -6.16%. In addition, the AC50 under setting [1] is 6.51 µM [rising, single point].

As to `COc1cc2c(cc1OC)CN(Cc1ccc(C)cc1)CC2`, the cell number change was determined as 12.2%. Moreover, under setting [1], the AC50 was 0.13 µM [rising, full curve, poor fit].

`CCOC(=O)C1CCN(CC(=O)N2CCc3ccccc32)CC1`: the cell number change came to 17.1%. Moreover, under setting [1], the AC50 was 29.1 µM [falling, single point].

For the molecule `CC(C)N(Cc1cnn(C)c1)Cc1nc(Cc2ccccc2Cl)no1`, the cell number change stood at 13.5%. Besides, the AC50 under setting [1] was 29.1 µM [rising, single point].

Turning to `O=C(COc1ccc2c(-c3ccccc3)cc(=O)oc2c1)NCC1CCC(C(=O)O)CC1` (configuration not stated), the cell number change worked out at 37.5%. Moreover, the AC50 under setting [2] is 0.00461 µM [rising, full curve, poor fit]. The AC50 under setting [1] was 2.91 µM [rising, full curve].

On to `CN1CCN(c2ccc(CNS(=O)(=O)c3ccc(Cl)cc3)cc2)CC1`, for which the cell number change is -4.13%. Further, the AC50 under setting [1] was 0.00461 µM [falling, full curve, poor fit].

With `CCOC(=O)CNS(=O)(=O)c1cc(-c2nn(C)c(=O)c3ccccc23)ccc1C`, the cell number change was 18.4%.

`Cc1ccc(S(=O)(=O)N2CCN(C(=O)C(C)Cn3nc(C)c(C)c3C)CC2)cc1C` (configuration not stated): the cell number change is -4.76%.

In the case of `COc1cccc(-n2c(CN3CCN(Cc4ccccc4)CC3)nc3ccc([N+](=O)[O-])cc3c2=O)c1`, the cell number change was 21.9%.

For `Cc1cccc(NS(=O)(=O)c2ccc(C(=O)N3CC(C)OC(C)C3)cc2)c1C` (configuration not stated), the cell number change was determined as 64%. The AC50 under setting [2] was 8.2 µM [rising, partial curve].

For the molecule `CCCC(C(=O)NCc1ccc(OC)cc1)N(Cc1ccco1)C(=O)c1snc(C(N)=O)c1N` (configuration not stated), the cell number change was -31%. The AC50 under setting [2] is 7.31 µM [falling, full curve, poor fit].

As for `COc1ccc(CCCC(=O)NCCc2ccccc2)c(C)c1`, the cell number change came to 7.37%.

With `COc1ccccc1CNC(=O)c1cc(S(=O)(=O)N2CCCCC2)c[nH]1`, the cell number change is -18.9%.

Values taken from PubChem BioAssay AID2685 (National Center for Advancing Translational Sciences (NCATS), 2010).
